Source: the supplement of paper PMC10849652
The list shows a part of the results.

Protein sequences, listed by entry. Tags and fused reporters are not part of them. Lines headed by an entry give the natural chain unless they say otherwise; changes in a name come on top.
UniProt O75197: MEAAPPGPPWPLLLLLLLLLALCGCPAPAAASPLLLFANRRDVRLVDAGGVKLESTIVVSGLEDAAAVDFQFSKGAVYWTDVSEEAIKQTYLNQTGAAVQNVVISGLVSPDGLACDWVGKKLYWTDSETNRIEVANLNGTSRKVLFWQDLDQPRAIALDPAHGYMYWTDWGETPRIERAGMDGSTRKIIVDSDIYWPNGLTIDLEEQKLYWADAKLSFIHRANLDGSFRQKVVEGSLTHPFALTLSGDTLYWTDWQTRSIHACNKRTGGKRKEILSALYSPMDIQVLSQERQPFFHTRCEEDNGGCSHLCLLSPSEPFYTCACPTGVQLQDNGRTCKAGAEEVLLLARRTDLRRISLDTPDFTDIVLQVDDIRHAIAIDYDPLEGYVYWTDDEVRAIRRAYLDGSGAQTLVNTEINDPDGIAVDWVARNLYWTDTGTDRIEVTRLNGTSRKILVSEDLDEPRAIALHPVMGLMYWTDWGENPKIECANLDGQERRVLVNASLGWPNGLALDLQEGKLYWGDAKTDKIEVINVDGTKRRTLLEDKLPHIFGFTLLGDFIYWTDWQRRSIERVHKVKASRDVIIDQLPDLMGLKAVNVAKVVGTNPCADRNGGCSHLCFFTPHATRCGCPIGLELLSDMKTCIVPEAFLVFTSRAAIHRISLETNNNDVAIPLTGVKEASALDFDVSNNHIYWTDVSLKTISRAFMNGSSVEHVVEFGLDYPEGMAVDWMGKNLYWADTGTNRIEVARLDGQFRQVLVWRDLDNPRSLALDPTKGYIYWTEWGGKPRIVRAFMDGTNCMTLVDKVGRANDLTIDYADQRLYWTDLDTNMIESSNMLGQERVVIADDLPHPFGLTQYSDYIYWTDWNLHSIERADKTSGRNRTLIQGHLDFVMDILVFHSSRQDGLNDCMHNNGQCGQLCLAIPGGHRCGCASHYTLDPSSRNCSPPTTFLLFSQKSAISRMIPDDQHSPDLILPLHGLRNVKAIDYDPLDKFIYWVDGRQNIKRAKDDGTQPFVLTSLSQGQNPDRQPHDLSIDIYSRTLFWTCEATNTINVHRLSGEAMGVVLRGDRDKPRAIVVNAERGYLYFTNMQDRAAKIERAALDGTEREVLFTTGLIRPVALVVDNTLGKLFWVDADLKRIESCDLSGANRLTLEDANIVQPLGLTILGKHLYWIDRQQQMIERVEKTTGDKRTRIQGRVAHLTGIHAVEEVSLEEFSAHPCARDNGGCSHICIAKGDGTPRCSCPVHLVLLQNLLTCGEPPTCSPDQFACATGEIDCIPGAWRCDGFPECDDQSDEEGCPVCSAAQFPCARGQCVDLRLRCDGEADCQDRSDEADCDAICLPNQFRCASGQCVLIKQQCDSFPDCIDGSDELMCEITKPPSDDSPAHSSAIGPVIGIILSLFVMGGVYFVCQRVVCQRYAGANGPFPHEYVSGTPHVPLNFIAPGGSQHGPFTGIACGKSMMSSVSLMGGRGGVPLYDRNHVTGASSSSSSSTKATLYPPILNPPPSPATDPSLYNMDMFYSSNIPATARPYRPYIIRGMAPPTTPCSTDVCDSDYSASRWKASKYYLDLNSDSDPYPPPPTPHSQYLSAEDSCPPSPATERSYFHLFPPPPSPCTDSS
UniProt O15230: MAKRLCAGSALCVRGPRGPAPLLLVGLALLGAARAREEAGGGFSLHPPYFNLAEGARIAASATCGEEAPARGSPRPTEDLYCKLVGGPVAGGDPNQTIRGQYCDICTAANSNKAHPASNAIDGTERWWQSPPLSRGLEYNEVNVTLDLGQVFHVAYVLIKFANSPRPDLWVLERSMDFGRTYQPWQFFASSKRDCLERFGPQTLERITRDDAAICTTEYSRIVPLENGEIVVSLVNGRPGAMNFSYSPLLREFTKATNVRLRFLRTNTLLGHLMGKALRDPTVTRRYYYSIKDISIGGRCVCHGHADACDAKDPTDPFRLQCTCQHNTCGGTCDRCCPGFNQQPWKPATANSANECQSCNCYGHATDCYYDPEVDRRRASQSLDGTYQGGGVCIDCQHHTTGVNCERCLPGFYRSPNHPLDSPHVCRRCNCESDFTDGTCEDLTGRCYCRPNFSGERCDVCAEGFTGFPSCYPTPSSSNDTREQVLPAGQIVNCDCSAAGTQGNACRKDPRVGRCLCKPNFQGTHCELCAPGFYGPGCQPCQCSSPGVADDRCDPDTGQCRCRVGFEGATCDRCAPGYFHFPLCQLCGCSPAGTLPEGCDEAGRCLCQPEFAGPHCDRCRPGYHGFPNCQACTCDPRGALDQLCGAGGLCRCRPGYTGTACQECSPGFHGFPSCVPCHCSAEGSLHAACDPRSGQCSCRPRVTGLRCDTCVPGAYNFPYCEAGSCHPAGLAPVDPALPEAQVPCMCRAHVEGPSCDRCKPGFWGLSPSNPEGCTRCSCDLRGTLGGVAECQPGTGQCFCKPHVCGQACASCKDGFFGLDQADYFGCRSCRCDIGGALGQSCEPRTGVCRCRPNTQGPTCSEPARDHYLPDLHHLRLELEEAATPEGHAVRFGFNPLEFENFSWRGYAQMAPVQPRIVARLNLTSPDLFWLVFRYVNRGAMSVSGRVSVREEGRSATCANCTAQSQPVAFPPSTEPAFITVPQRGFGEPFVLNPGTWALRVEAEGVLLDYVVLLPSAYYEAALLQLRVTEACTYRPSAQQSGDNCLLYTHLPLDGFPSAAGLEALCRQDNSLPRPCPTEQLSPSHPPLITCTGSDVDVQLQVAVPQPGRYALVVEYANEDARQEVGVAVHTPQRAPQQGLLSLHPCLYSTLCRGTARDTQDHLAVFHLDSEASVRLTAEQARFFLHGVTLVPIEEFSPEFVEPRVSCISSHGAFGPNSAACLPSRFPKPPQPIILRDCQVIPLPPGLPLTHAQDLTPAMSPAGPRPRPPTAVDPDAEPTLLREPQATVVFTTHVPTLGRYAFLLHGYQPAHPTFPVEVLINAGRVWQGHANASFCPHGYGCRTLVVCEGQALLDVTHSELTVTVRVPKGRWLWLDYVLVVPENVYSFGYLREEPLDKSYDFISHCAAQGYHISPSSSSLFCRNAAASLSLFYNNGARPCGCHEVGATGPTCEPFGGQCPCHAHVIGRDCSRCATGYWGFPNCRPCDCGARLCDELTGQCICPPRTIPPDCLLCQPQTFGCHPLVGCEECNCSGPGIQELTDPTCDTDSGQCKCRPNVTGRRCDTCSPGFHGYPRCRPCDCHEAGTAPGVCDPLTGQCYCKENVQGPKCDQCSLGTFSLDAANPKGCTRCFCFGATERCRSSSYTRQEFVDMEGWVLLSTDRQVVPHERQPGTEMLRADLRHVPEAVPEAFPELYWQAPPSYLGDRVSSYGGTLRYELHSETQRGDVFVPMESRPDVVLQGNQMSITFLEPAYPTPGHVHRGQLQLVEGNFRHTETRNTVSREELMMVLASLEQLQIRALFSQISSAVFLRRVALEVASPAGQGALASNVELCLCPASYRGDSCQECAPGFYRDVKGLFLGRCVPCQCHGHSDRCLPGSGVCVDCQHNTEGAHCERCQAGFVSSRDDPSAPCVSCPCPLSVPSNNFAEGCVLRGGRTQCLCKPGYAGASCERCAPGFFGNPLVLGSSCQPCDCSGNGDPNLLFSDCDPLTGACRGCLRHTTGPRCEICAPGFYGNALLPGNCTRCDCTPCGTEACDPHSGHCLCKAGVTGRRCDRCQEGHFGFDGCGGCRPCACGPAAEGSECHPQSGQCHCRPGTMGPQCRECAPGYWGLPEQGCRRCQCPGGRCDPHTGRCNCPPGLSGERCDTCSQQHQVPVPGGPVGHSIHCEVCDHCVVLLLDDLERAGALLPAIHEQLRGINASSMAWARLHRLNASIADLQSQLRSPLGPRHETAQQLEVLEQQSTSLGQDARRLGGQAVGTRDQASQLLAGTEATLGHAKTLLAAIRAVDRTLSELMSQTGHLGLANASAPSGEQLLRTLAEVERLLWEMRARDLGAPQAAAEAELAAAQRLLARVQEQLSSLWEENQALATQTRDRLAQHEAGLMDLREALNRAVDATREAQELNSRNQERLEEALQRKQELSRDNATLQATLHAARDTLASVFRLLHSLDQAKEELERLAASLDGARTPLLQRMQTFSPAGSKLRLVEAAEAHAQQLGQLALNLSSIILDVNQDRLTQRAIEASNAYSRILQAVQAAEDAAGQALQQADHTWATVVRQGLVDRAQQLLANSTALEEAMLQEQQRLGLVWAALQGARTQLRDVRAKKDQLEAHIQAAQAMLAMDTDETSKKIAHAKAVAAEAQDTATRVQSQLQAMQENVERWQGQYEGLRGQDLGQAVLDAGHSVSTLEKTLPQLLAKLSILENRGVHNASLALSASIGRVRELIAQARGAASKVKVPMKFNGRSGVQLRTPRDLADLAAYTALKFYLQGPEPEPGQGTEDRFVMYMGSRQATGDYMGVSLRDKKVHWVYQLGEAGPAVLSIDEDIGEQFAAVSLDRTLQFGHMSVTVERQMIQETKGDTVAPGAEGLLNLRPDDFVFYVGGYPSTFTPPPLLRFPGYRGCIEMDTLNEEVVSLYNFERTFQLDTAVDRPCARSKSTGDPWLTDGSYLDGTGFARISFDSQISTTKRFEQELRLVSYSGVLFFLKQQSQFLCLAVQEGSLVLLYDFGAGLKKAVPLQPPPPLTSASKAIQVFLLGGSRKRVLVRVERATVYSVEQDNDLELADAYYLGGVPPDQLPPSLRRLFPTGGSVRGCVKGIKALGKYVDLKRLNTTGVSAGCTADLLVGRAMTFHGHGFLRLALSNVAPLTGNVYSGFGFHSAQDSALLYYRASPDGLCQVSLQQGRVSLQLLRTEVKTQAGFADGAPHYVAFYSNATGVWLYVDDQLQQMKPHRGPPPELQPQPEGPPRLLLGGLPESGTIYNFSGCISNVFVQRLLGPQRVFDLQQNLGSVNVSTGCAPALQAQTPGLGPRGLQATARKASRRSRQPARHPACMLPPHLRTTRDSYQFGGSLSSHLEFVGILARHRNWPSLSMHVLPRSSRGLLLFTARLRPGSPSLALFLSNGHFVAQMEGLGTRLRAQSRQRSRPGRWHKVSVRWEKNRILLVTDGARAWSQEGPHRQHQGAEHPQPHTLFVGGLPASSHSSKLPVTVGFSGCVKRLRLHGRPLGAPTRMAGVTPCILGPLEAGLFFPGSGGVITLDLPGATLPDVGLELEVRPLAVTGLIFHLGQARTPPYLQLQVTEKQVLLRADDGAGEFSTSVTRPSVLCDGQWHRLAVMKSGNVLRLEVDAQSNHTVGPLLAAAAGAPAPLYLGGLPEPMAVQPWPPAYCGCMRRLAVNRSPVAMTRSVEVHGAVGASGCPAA
UniProt O95214: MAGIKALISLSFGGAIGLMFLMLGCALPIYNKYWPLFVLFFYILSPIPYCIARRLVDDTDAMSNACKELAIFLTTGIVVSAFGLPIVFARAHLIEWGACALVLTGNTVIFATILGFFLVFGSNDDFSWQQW
UniProt Q93052: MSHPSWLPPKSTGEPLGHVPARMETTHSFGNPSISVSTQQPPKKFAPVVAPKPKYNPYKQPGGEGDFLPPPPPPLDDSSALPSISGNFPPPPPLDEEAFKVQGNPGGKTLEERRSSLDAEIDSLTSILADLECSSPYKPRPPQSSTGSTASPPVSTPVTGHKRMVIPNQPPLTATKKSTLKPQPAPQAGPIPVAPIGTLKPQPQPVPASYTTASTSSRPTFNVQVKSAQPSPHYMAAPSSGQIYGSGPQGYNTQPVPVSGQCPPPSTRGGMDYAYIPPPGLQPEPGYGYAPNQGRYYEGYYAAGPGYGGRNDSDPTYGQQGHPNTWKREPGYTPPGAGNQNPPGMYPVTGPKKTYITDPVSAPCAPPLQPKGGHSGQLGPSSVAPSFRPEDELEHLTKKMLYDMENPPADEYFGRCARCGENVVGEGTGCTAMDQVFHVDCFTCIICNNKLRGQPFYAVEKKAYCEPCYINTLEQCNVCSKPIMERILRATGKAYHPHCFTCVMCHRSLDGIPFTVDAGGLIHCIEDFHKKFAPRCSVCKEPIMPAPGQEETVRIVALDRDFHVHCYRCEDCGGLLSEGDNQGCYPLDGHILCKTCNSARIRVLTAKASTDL
UniProt Q9Y546: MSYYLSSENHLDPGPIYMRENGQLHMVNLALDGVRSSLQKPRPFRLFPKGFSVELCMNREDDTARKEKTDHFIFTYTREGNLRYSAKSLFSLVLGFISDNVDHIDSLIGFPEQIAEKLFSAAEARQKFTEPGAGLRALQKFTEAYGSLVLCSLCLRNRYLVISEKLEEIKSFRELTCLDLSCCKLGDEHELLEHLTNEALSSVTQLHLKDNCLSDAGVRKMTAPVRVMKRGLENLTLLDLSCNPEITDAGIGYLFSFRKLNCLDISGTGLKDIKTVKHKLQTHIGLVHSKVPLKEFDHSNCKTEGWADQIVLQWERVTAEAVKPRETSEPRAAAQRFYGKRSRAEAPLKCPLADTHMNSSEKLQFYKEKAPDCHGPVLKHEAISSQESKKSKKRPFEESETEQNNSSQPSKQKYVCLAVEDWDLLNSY

Assays:
Assay in all cases: log2 fold change, soluble protein after heating vs DMSO (PISA); higher = thermal stabilisation; K562 cells, 10 uM, 30 min; active = over 0.2 and 3.5 SD of the protein, either way, in both replicates (recomputed)
[1] = compound: Cc1cccc(CC(=O)N2CCc3c2ccc(-c2cn(C)c4ncnc(N)c24)c3F)n1
Outline: (§1)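 K562 cells (2×10^6 cells/mL) were treated with 10 μM compound for 30 min, and aliquots were heated for 3 min over 48°C-58°C. Pooled aliquots were extracted in PBS with 0.5% NP-40 at 4°C, and the supernatant after 21,000xg for 90 min was measured by TMTpro 16plex LC-MS/MS with channel sums equalised. Reported thermal stability, relative to control samples and from duplicates, is a log2 fold change.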

[2] = compound: Cc1cn(-c2cc(NC(=O)c3ccc(C)c(Nc4nccc(-c5cccnc5)n4)c3)cc(C(F)(F)F)c2)cn1 [nilotinib]
Outline: as §1

[3] = compound: Cc1nc(Nc2n[nH]c3c2CN(C(=O)N[C@H](CN(C)C)c2ccccc2)C3(C)C)c2sccc2n1
Outline: as §1

[4] = compound: Cc1nc(Nc2ncc(C(=O)Nc3c(C)cccc3Cl)s2)cc(N2CCN(CCO)CC2)n1 [dasatinib]
Outline: as §1

[5] = compound: Cc1ncc(-c2ccnc(Nc3ccc(S(C)(=O)=O)cc3)n2)n1C(C)C
Outline: as §1

[6] = compound: Cn1cc(-c2ccc3c(c2)CCN3C(=O)Cc2cccc(C(F)(F)F)c2)c2c(N)ncnc21
Outline: as §1

[7] = compound: Cn1cncc1[C@@](N)(c1ccc(Cl)cc1)c1ccc2c(c1)c(-c1cccc(Cl)c1)cc(=O)n2C [tipifarnib]
Outline: as §1

[8] = compound: NCC(=O)Nc1ccc(-n2nc(C(F)(F)F)cc2-c2ccc3c(ccc4ccccc43)c2)cc1
Outline: as §1

[9] = compound: O=C(CCCCCCC(=O)Nc1ccccc1)NO [vorinostat]
Outline: as §1

[10] = compound: O=C1NC(=O)C(c2cnc3ccccn23)=C1c1cn2c3c(cc(F)cc13)CN(C(=O)N1CCCCC1)CC2
Outline: as §1

[11] = compound: Cc1ccc(NC(=O)c2ccc(CN3CC[C@H](N(C)C)C3)c(C(F)(F)F)c2)cc1Nc1nccc(-c2cncnc2)n1 [bafetinib]
Outline: as §1

[12] = compound: Cn1cc(-c2ccc3nnc(C(F)(F)c4ccc5ncccc5c4)n3n2)cn1
Outline: as §1

[13] = compound: FC(F)(F)c1ccc(/C=C/c2nc(COc3ccc(CCCCn4ccnn4)cc3)co2)cc1 [mubritinib]
Outline: as §1

[14] = compound: NC(=O)Nc1cc(-c2cccc(F)c2)sc1C(=O)N[C@H]1CCCNC1
Outline: as §1

[15] = compound: NC(=O)c1cnc(N[C@@H]2CCCC[C@@H]2N)nc1Nc1cccc(-n2nccn2)c1
Outline: as §1

[16] = compound: NC1(c2ccc(-c3nc4ccn5c(=O)[nH]nc5c4cc3-c3ccccc3)cc2)CCC1
Outline: as §1

[17] = compound: Nc1ccccc1NC(=O)c1ccc(CNC(=O)OCc2cccnc2)cc1 [entinostat]
Outline: as §1

[18] = compound: O=C(O)c1ccc2c(c1)nc(Nc1cccc(Cl)c1)c1ccncc12 [silmitasertib]
Outline: as §1

[19] = compound: O=C(CCCCCCNC(=O)c1cnc(N(c2ccccc2)c2ccccc2Cl)nc1)NO [citarinostat]
Outline: as §1

[20] = compound: c1cc(OCCN2CCCCC2)cc(-c2n[nH]c3ccc(-c4nnc[nH]4)cc23)c1
Outline: as §1

Measured: log2 fold change

LRP5 (UniProt O75197)
inactive: [1] -0.013 | [2] -0.131 | [3] 0.089 | [4] 0.115 | [5] -0.011 | [6] -0.027 | [7] 0.087 | [8] -0.074 | [9] -0.113 | [10] -0.003

LRP10 (UniProt Q7Z4F1)
inactive: [11] -0.075 | [2] 0.041 | [3] -0.094 | [4] 0.099 | [5] -0.033 | [6] 0.08 | [12] 0.075 | [7] 0.065 | [13] -0.014 | [14] -0.329 | [15] 0.065 | [16] -0.29 | [17] 0.177 | [18] 0.33 | [10] 0.271

LAMA5 (UniProt O15230)
inactive: [1] -0.061 | [2] -0.101 | [3] -0.047 | [4] 0.054 | [5] -0.149 | [6] -0.256 | [13] -0.303 | [15] -0.113 | [16] 0.198 | [8] -0.043 | [9] 0.015 | [18] -0.131 | [10] 0.114

LMLN isoform 3 (UniProt Q96KR4)
inactive: [11] 0 | [4] -0.291 | [7] 0.191 | [10] 0

LACRT (UniProt Q9GZZ8)
inactive: [11] 0.654 | [2] -0.196 | [3] 0.165 | [5] 0.31 | [6] 0 | [12] 0.233 | [13] 0.039 | [14] 0.298 | [15] 0.301 | [16] -0.143 | [8] 0.133 | [17] 0.095 | [19] 0.369 | [18] -0.062 | [10] -0.746 | [20] 0.348

LEPROTL1 isoform 2 (UniProt O95214)
inactive: [11] 0.212 | [2] -0.067 | [3] 0.125 | [4] 0.012 | [5] -0.201 | [6] -0.064 | [12] -0.052 | [7] 0.216 | [13] 0.083 | [15] -0.03 | [16] -0.248 | [8] 0.141 | [19] 0.051 | [18] 0.123 | [20] -0.174

LPP (UniProt Q93052)
inactive: [11] -0.169 | [2] 0.114 | [3] 0.034 | [5] 0.15 | [14] -0.144 | [17] -0.038 | [10] -0.009

LAMA2 (UniProt P24043)
inactive: [11] -0.067 | [2] 0.157 | [3] -0.076 | [5] 0.102 | [6] -0.095 | [13] 0.245 | [16] -0.006 | [18] -0.086

LRRC42 (UniProt Q9Y546)
inactive: [11] -0.088 | [1] -0.035 | [4] -0.255 | [6] -0.053 | [12] -0.019 | [15] -0.353 | [8] -0.257 | [9] 0.037
